Results are given in words; binding and its absence hold for the method and conditions named. Binding seen in cells or lysates may run through a third protein. A result given as binding can be weak or reduced; the word gives no strength.
Biological target: Nucleoporin 98A (Glycine max (endogenous in etiolated hypocotyl nuclei)) (UniProt I1LVB2)
Experiment: cross-linking

**Q.** With “Ribonucleic Acid Export 1 (from UniProt I1JEL5)” as the substance, how does the binding read?
**A.** Its binding is “binds”.

From publication doi:10.1101/2022.08.14.503837
